Results taken from the supplement of paper PMC12067093, “Discovery and optimisation of a covalent ligand for TRIM25 and its application to targeted protein ubiquitination” (Chemical Science, 2025).
The list shows a part of the results.

The chains behind the UniProt entries cited, without tags or fusion partners. Where a name states a change or a piece, a line headed by the entry shows the natural chain unless it says otherwise.
UniProt Q9Y530: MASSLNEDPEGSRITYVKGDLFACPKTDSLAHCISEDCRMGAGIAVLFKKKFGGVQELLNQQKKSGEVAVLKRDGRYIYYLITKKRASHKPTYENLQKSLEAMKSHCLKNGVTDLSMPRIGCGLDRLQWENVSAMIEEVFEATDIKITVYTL
UniProt P00973: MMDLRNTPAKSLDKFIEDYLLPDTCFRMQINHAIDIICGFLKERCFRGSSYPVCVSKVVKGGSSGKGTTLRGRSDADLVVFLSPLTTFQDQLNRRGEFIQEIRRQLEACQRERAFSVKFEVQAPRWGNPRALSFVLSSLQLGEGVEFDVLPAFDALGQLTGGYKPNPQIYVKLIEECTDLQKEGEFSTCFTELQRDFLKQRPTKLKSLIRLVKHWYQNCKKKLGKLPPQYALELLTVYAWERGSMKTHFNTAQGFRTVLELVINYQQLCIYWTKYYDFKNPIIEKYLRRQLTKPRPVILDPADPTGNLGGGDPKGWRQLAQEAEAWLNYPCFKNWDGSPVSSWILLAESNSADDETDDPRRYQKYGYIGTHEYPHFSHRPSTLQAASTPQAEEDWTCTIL
UniProt O75147: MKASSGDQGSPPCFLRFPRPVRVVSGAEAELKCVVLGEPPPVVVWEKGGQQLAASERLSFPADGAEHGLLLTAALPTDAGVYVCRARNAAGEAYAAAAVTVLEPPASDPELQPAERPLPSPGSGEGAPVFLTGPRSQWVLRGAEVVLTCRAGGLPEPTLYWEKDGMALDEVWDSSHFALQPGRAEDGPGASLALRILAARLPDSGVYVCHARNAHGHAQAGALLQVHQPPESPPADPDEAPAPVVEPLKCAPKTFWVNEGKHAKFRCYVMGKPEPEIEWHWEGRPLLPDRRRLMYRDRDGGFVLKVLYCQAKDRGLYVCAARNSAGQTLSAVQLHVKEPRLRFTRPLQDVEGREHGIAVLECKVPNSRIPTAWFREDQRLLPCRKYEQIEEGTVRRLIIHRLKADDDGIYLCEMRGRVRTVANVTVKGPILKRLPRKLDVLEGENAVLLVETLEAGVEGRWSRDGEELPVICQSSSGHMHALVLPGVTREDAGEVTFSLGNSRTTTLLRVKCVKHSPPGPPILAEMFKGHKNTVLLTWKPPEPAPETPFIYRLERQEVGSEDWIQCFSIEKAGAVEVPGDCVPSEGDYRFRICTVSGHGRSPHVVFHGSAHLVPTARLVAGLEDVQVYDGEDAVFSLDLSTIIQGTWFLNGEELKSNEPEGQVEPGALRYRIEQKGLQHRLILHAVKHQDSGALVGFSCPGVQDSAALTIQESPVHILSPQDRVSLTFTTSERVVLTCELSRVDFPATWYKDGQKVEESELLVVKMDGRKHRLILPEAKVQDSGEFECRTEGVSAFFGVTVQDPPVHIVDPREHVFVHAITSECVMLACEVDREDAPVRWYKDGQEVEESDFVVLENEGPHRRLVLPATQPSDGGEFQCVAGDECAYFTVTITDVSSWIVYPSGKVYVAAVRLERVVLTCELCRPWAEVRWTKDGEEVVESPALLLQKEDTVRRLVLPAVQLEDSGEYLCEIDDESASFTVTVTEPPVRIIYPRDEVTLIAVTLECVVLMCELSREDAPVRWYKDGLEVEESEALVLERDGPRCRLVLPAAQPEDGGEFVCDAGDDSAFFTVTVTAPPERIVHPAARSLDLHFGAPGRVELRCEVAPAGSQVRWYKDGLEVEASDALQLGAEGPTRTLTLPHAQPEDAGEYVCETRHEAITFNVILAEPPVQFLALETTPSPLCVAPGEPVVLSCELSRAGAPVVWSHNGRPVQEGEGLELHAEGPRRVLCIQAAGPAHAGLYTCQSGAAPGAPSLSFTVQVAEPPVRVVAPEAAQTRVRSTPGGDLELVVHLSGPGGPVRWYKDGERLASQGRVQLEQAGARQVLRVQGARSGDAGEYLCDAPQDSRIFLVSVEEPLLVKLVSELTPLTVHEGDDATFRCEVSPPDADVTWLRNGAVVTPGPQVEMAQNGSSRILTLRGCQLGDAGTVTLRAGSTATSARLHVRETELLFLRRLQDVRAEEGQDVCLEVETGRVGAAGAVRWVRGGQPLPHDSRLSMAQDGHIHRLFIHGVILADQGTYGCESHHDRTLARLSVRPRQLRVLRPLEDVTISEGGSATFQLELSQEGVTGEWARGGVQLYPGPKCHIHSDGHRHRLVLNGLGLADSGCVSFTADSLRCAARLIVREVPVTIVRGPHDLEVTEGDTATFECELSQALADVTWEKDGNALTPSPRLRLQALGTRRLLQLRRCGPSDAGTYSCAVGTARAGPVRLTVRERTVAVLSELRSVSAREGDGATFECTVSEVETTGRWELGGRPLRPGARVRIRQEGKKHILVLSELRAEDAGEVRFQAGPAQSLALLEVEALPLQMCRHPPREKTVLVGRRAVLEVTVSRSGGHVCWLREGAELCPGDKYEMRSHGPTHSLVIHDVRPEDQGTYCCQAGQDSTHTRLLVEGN
UniProt Q92621: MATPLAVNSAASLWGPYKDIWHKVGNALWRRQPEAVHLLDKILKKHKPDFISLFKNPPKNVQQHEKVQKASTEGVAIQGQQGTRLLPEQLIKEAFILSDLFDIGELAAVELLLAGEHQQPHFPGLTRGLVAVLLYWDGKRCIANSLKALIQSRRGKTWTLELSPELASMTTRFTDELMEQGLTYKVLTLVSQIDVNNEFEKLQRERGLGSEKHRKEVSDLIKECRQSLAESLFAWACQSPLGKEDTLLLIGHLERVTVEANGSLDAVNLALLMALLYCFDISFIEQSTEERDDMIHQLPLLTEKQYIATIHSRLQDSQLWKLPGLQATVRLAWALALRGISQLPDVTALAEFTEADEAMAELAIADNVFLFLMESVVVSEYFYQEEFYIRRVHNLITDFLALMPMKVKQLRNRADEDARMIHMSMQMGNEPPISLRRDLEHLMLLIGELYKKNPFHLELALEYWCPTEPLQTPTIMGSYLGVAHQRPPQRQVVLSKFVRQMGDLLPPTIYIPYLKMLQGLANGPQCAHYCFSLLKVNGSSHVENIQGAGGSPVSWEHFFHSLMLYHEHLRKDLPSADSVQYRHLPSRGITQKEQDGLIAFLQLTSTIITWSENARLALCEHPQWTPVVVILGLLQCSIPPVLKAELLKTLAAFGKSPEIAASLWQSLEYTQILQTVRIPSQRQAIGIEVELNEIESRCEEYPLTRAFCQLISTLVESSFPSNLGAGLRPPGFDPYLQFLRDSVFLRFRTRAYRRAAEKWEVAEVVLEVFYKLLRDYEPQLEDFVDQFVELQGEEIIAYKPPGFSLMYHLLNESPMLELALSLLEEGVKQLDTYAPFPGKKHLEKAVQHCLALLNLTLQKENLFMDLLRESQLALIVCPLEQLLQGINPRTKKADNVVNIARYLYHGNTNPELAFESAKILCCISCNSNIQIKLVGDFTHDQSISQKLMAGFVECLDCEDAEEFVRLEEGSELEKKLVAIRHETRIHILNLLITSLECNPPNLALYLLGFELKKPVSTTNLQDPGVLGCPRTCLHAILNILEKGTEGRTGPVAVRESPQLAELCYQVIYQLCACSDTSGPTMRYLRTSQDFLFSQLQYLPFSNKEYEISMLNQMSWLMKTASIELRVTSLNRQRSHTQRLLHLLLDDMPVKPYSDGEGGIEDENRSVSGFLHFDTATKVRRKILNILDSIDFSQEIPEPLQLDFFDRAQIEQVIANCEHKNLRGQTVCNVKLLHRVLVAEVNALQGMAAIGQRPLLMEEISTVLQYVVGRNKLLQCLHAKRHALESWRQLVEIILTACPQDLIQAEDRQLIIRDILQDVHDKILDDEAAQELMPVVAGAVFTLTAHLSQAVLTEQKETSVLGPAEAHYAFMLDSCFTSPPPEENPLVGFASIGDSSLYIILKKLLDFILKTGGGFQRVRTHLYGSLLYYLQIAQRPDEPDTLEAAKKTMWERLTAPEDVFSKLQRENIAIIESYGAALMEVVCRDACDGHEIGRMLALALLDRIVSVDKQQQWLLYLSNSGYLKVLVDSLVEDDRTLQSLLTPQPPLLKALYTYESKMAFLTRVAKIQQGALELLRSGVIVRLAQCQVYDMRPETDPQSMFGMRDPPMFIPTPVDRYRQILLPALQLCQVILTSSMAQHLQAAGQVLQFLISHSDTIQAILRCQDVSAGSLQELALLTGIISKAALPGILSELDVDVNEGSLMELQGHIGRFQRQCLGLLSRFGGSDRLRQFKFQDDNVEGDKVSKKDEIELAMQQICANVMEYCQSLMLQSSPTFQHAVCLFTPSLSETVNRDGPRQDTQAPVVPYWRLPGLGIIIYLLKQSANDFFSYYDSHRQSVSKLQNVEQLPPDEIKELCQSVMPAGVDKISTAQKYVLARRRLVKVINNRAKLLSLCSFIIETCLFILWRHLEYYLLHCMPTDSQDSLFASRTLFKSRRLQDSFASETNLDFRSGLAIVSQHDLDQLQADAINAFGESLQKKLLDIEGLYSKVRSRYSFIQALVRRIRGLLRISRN
UniProt Q8N543: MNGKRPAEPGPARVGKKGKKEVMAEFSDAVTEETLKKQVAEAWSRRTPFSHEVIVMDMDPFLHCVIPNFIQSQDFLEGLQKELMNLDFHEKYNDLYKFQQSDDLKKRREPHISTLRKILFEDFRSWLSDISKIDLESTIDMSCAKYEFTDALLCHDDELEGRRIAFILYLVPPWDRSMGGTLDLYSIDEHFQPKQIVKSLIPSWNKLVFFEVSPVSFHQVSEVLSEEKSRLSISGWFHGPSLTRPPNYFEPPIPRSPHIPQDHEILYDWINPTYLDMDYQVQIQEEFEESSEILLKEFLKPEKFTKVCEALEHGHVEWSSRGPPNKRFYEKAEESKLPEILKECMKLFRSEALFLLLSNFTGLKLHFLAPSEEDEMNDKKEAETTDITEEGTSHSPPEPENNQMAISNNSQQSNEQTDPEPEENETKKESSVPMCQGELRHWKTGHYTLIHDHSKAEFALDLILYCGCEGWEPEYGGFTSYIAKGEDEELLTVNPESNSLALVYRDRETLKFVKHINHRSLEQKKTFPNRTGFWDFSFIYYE
UniProt Q5SWX8: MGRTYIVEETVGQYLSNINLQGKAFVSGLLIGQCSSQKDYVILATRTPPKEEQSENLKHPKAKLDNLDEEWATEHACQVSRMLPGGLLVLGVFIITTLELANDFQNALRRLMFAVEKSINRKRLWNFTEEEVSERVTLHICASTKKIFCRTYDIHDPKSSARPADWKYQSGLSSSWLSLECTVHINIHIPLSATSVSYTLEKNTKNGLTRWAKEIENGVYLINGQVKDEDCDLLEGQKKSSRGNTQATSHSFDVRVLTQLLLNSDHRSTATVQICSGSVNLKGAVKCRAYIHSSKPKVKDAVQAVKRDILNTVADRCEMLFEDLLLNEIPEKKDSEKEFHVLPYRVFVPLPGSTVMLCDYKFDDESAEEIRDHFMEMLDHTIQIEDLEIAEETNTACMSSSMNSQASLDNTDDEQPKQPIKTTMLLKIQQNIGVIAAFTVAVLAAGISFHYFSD
UniProt Q9H4D5: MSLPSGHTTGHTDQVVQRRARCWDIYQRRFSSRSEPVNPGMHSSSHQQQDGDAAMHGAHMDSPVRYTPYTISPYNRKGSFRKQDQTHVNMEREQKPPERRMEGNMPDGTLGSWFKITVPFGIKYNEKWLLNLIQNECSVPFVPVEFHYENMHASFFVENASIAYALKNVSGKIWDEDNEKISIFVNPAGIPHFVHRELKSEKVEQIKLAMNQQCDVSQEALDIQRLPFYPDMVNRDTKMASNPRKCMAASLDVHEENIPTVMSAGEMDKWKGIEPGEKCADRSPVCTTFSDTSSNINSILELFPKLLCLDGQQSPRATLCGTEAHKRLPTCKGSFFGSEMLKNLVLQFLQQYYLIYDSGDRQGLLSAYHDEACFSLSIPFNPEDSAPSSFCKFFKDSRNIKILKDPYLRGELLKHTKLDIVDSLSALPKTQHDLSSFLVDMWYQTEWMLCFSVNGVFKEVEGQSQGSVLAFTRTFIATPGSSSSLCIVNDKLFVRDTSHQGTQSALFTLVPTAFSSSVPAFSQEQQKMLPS
UniProt Q96RS6: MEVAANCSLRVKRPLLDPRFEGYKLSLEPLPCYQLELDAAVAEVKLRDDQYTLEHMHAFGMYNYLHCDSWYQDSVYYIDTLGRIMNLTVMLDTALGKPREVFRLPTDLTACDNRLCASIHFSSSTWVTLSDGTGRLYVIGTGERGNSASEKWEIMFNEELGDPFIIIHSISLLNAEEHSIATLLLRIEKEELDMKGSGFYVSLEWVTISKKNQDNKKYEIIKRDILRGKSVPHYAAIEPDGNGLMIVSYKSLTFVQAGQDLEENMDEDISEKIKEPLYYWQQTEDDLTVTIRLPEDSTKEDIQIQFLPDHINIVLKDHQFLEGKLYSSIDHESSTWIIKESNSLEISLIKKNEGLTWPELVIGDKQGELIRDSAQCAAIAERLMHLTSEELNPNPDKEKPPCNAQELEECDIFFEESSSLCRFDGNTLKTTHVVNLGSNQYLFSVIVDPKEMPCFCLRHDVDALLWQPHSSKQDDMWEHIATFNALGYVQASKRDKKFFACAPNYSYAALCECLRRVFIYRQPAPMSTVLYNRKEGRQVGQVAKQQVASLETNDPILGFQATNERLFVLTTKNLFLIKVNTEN

Compound: Cc1cc(ccc1-c1ccccc1)C(=O)N1CCCN(CC1)C(=O)CCl [compound 10]
Test: probe-labelled cysteine peptide fold change vs DMSO (competition) (log2 fold change); higher = less target engagement (more negative = stronger competition)
Conditions: THP-1, incubation time: 4 h
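Also: competitive profiling in live THP-1 cells: cysteine peptides tagged with an iodoacetamide desthiobiotin (IA-DTB) probe, intensity after compound treatment relative to DMSO-treated cells.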

Row | Target | probe-labelled cysteine peptide fold change (10 µM) | probe-labelled cysteine peptide fold change (50 µM)
1 | OAS3_Q9Y6K5_850_AQLEACQQER (UniProt Q9Y6K5) | -0.0629 | 0.221
2 | OFD1_O75665_503_AIVVEHEEFESCR (UniProt O75665) | -0.063 | -0.338
3 | NUDT5_Q9UKK9_76_TLHYECIVLVK (UniProt Q9UKK9) | 0.019 | -0.0213
4 | OARD1_Q9Y530_33+38_TDSLAHCISEDCR (UniProt Q9Y530) | -0.118 | -0.279
5 | NUDT12_Q9BQG2_18_QEIVTQFHCSAAEGDIAK (UniProt Q9BQG2) | -0.164 | -0.409
6 | NUP85_Q9BW27_51_SEMVPSCPFIYIIR (UniProt Q9BW27) | 0.108 | -0.0898
7 | NUDT3_O95989_68_EVCEEAGVK (UniProt O95989) | -0.0389 | -0.0139
8 | NUP188_Q5SRE5_161_VEYADCVDK (UniProt Q5SRE5) | 0.0699 | 0.497
9 | OAS1_P00973_331_QLAQEAEAWLNYPCFK (UniProt P00973) | -0.132 | -0.0175
10 | OBSL1_O75147_209_LPDSGVYVCHAR (UniProt O75147) | 5.8e-05 | 0.035
11 | NUP205_Q92621_1032_TCLHAILNILEK (UniProt Q92621) | 0.046 | -0.161
12 | OGFOD1_Q8N543_154_YEFTDALLCHDDELEGRR (UniProt Q8N543) | -0.116 | 0.095
13 | ODR4_Q5SWX8_77_AKLDNLDEEWATEHACQVSR (UniProt Q5SWX8) | -0.158 | -0.0362
14 | NUP153_P49790_860_FKKPEGSWDCELCLVQNK (UniProt P49790) | -0.0226 | -0.228
15 | NUMB_P49757_160_LSHAVGCAFAACLER (UniProt P49757) | -0.25 | -0.0513
16 | NUBP1_P53384_8_MEEVPHDCPGADSAQAGR (UniProt P53384) | 1.37 | 1.35
17 | NXF3_Q9H4D5_214_LAMNQQCDVSQEALDIQR (UniProt Q9H4D5) | -0.0938 | -0.107
18 | NVL_O15381_431_FDREICLGIPDEASR (UniProt O15381) | -0.0463 | 0.00696

Reprinted from the results shown for reference:
Row | Target | probe-labelled cysteine peptide fold change (10 µM) | probe-labelled cysteine peptide fold change (50 µM)
8 | NUP188_Q5SRE5_161_VEYADCVDK (UniProt Q5SRE5) | 0.0699 | 0.497
9 | OAS1_P00973_331_QLAQEAEAWLNYPCFK (UniProt P00973) | -0.132 | -0.0175
10 | OBSL1_O75147_209_LPDSGVYVCHAR (UniProt O75147) | 5.8e-05 | 0.035
11 | NUP205_Q92621_1032_TCLHAILNILEK (UniProt Q92621) | 0.046 | -0.161
12 | OGFOD1_Q8N543_154_YEFTDALLCHDDELEGRR (UniProt Q8N543) | -0.116 | 0.095
13 | ODR4_Q5SWX8_77_AKLDNLDEEWATEHACQVSR (UniProt Q5SWX8) | -0.158 | -0.0362
14 | NUP153_P49790_860_FKKPEGSWDCELCLVQNK (UniProt P49790) | -0.0226 | -0.228
15 | NUMB_P49757_160_LSHAVGCAFAACLER (UniProt P49757) | -0.25 | -0.0513
16 | NUBP1_P53384_8_MEEVPHDCPGADSAQAGR (UniProt P53384) | 1.37 | 1.35
17 | NXF3_Q9H4D5_214_LAMNQQCDVSQEALDIQR (UniProt Q9H4D5) | -0.0938 | -0.107

Following part.

Row | Target | probe-labelled cysteine peptide fold change (10 µM) | probe-labelled cysteine peptide fold change (50 µM)
19 | NUP98_P52948_1636_HLEALCLFK (UniProt P52948) | 0.0131 | 0.0374
20 | NUP107_P57740_749_EHLCIR (UniProt P57740) | 0.0299 | 0.19
21 | NUDCD1_Q96RS6_7_MEVAANCSLR (UniProt Q96RS6) | 0.322 | -0.184
22 | NUS1_Q96E22_184_YSPEFANSNDKDDQVLNCHLAVK (UniProt Q96E22) | 0.0563 | -0.361
23 | NUBP2_Q9Y5Y2_54_VGILDVDLCGPSIPR (UniProt Q9Y5Y2) | 0.00457 | 0.162
24 | NUP160_Q12769_1166_NHDGECTAAPTNR (UniProt Q12769) | -0.241 | -0.27
25 | NUP50_Q9UKX7_416_ADTNLGNILLNVLIPPNMPCTR (UniProt Q9UKX7) | -0.0173 | -0.0779
26 | NUP188_Q5SRE5_9_AAAAGGPCVR (UniProt Q5SRE5) | 0.156 | 0.173
27 | NUP160_Q12769_303_GDQSPSDRPLSLAVHCVEHDAFIFALCQDHK (UniProt Q12769) | 0.131 | 0.191
28 | NUDCD1_Q96RS6_402+410+421_EKPPCNAQELEECDIFFEESSSLCR (UniProt Q96RS6) | -0.098 | -0.407
29 | NUP160_Q12769_1124+1131_QGNCYLAALNCLR (UniProt Q12769) | 0.056 | -0.0329
30 | NUP43_Q8NFH3_362_SLSVNTLDVLGPCLVCGTDAEAIYVTR (UniProt Q8NFH3) | 0.0576 | 0.0801
31 | NUP188_Q5SRE5_1270_DSMETDDCSR (UniProt Q5SRE5) | -0.22 | 0.0252
32 | NUDT9_Q9BW91_347_RDAHWSEDSEADCHAL (UniProt Q9BW91) | 0.0175 | 0.173
33 | NUP214_P35658_1003_TSCKDDEAVVQAPR (UniProt P35658) | -0.105 | -0.359
34 | OAS3_Q9Y6K5_956_HWYQQCTK (UniProt Q9Y6K5) | -0.611 | 0.0985
35 | NUP37_Q8NFH4_311_TLPLCVIGGDHK (UniProt Q8NFH4) | 0.0128 | -0.043
36 | NUP210_Q8TEM1_1592_GECTPTQR (UniProt Q8TEM1) | -0.0111 | 0.251
